Experimental data taken from the supplement of paper PMC10849652.
Some of the results follow.

By UniProt entry, the sequences of proteins in these tests, tags left out. Where a name states a change or a piece, a line headed by the entry shows the natural chain unless it says otherwise.
UniProt P09668: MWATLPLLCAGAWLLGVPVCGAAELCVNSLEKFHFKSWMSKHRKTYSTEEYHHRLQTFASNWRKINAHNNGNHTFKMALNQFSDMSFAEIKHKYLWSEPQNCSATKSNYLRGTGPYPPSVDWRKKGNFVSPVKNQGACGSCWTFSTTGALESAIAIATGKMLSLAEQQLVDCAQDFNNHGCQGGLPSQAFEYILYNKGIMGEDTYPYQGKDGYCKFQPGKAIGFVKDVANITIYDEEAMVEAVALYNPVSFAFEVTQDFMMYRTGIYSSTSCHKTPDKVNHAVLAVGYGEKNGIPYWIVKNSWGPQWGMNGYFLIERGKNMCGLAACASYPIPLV
UniProt Q13618, whole entry, looked up: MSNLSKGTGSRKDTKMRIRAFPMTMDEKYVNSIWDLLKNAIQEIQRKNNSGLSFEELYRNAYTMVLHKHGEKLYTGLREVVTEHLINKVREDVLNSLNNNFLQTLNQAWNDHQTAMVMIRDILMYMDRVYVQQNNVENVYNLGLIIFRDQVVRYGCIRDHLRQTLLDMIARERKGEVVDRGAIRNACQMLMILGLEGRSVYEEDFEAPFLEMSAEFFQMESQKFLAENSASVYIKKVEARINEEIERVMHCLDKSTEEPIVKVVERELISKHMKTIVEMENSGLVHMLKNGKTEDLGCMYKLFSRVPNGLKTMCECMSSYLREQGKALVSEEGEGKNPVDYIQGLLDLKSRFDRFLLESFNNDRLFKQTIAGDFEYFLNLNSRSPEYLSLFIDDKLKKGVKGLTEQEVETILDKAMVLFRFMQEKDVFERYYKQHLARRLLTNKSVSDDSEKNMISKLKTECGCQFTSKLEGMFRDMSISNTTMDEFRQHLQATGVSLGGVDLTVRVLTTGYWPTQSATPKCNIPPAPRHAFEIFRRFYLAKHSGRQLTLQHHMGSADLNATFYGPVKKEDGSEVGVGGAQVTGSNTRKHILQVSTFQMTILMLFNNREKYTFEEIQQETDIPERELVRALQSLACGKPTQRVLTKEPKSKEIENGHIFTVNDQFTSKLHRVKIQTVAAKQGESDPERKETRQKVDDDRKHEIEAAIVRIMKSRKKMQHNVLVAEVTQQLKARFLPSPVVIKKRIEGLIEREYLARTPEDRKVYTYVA
UniProt Q9P021, whole entry, looked up: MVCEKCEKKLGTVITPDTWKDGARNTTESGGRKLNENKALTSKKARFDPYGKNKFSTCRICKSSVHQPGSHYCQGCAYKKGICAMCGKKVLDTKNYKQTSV
UniProt P26232: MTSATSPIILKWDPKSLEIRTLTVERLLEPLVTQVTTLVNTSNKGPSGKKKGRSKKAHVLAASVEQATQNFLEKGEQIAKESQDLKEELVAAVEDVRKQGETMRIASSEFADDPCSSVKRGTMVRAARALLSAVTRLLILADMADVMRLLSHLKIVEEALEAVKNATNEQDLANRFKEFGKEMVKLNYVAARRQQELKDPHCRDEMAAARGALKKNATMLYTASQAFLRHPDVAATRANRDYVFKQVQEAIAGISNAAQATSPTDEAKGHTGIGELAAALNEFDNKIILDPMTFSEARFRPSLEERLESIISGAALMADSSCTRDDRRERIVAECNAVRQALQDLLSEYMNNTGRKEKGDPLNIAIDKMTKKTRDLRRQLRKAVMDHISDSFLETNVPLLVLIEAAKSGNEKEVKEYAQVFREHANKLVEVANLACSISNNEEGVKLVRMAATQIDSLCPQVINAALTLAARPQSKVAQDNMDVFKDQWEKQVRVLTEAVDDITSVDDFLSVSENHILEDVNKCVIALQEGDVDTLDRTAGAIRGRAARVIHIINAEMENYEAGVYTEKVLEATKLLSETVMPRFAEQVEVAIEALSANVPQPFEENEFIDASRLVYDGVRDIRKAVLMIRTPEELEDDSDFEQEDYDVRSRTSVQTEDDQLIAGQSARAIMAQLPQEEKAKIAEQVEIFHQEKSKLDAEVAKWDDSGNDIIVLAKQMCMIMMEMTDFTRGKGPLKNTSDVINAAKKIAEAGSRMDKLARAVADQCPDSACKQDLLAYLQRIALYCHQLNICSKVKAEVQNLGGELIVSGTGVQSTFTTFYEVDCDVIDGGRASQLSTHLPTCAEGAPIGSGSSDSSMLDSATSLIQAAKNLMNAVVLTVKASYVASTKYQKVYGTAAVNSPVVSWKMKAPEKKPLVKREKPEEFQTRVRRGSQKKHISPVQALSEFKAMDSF
UniProt Q8NBI2: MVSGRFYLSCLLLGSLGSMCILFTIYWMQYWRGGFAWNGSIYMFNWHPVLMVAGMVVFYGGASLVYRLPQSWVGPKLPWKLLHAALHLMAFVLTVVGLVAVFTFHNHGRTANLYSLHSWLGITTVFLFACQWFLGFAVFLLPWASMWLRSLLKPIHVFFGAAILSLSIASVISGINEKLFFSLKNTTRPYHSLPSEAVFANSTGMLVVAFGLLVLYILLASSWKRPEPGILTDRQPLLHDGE
UniProt P35221: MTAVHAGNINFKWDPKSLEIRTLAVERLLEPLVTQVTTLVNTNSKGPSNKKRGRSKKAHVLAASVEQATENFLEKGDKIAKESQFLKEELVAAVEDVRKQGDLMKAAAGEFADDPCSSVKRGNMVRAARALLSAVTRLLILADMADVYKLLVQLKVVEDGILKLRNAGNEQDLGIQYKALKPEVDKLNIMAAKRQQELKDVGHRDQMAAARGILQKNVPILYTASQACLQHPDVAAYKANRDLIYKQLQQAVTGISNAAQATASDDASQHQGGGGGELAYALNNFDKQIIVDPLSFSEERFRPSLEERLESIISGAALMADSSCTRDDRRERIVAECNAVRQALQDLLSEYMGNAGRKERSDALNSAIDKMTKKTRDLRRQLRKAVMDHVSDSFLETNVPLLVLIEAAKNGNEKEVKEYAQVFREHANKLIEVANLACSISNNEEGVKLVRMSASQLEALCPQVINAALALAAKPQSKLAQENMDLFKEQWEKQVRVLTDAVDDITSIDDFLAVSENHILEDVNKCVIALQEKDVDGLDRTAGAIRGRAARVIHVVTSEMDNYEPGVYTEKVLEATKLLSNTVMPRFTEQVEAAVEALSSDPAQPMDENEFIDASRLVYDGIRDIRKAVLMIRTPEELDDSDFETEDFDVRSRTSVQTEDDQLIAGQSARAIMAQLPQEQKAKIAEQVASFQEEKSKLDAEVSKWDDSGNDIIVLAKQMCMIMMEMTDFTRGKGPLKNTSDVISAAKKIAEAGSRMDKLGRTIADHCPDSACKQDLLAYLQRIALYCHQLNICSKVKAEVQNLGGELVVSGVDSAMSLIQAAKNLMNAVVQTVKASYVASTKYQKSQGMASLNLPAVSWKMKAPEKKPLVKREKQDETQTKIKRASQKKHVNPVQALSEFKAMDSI
UniProt P35222, whole entry, looked up: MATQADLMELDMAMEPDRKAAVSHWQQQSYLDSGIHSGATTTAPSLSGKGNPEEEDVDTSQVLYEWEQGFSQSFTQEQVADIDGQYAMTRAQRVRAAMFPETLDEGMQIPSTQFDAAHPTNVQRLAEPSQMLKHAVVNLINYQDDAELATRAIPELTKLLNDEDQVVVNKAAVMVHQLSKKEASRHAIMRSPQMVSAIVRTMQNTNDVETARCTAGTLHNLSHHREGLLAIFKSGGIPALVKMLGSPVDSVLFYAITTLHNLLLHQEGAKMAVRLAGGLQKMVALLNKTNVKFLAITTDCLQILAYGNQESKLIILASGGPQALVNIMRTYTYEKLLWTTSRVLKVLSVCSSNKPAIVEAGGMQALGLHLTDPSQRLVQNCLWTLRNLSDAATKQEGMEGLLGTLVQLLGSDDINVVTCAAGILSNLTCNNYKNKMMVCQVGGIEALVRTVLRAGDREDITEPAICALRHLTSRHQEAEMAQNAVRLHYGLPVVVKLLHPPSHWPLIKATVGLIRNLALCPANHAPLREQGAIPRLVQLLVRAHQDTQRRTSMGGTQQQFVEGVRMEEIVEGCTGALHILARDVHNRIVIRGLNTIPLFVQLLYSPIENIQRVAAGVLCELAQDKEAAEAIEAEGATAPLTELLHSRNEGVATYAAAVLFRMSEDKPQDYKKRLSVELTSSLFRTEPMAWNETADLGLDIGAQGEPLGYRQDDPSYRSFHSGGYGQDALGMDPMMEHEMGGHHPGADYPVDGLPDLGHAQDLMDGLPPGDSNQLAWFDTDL
UniProt Q1MSJ5: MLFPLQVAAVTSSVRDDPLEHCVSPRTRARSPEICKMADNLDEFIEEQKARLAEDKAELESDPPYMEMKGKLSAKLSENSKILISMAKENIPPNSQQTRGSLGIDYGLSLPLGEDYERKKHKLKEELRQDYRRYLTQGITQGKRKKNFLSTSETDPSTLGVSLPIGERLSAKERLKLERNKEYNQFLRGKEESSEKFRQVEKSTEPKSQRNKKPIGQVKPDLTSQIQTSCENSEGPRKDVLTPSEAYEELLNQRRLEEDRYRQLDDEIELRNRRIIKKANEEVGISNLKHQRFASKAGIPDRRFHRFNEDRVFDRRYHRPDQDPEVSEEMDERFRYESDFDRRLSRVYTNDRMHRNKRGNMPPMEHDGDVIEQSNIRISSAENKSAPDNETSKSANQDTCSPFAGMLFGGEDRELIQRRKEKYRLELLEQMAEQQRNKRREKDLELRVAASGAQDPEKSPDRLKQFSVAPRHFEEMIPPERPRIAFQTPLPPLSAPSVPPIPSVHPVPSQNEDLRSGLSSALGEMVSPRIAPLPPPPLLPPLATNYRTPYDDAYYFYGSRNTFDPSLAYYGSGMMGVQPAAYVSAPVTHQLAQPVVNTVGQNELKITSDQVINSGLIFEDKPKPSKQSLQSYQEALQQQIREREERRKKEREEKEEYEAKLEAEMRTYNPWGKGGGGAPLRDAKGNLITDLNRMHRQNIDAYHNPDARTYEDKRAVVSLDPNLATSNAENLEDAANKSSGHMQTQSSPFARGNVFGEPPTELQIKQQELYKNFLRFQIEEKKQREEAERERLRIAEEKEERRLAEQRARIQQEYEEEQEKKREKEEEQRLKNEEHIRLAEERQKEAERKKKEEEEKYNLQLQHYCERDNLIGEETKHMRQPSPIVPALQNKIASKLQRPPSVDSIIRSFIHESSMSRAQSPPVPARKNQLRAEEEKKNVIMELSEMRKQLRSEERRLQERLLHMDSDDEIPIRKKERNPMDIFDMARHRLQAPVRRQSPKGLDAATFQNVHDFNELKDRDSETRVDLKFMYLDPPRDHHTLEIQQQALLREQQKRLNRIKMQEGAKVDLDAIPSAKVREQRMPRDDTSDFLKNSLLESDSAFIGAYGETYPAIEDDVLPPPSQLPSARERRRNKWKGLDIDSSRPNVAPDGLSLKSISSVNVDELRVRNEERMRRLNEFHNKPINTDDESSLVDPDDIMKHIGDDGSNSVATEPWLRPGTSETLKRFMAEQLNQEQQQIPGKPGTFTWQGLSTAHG
UniProt P49447: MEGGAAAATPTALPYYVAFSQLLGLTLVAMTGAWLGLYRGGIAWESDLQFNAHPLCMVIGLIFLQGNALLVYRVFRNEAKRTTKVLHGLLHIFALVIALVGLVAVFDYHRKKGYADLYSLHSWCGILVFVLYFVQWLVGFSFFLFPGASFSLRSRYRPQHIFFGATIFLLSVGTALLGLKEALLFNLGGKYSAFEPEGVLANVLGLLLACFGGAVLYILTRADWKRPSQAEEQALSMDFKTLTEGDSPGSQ

What was measured:
Assay in all cases: log2 fold change, soluble protein after heating vs DMSO (PISA); higher = thermal stabilisation; K562 lysate, 10 uM; active = over 0.2 and 3.5 SD of the protein, either way, in both replicates (recomputed)
[1] = compound: C1=CC=C(C=C1)[C@H](COC2=CC3=C(C=C2)NC(=O)N3)NC(=O)C4=CC=CN(C4=O)CC5=CC(=C(C=C5)F)F
How it was run: (§1)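 K562 pellets were dounce-homogenised in PBS pH 7.4 with 1 mM MgCl2, and the crude extract at 1 mg/mL protein was treated with 10 μM compound for 30 min. Aliquots were heated for 3 min across 48°C-58°C, pooled, and brought to 0.5% NP-40 at 4°C; soluble protein was the supernatant after 21,000xg for 90 min. Soluble protein was quantified by TMTpro 16plex LC-MS/MS with channel sums equalised, and reported as log2 fold change in thermal stability against DMSO controls, with values from duplicates.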

[2] = compound: CC1=C(SC2=C1C(=N[C@H](C3=NN=C(N32)C)CC(=O)N)C4=CC=C(C=C4)Cl)C
How it was run: as §1

[3] = compound: CC1=C2C(=CC=C1)N=C(N(C2=O)C3=CC=CC=C3C)CN4C=NC5=C(N=CN=C54)N
How it was run: as §1

[4] = compound: Cc1sc2c(c1C)C(c1ccc(Cl)cc1)=N[C@@H](CC(=O)OC(C)(C)C)c1nnc(C)n1-2
How it was run: as §1

[5] = compound: c1ccc([C@@H]2C[C@H]2NC2CCNCC2)cc1
How it was run: as §1

Measured: log2 fold change

CTSH (UniProt P09668)
inactive: [1] 0.007 | [2] -0.039 | [3] -0.002 | [4] 0.04 | [5] -0.032

CUL3 (UniProt Q13618)
inactive: [1] -0.001 | [2] -0.001 | [3] 0.003 | [4] -0.01 | [5] 0.027

CRIPT (UniProt Q9P021)
inactive: [1] 0.015 | [2] 0.15 | [3] 0.022 | [4] -0.005 | [5] 0.005

CTNNA2 (UniProt P26232)
inactive: [1] -0.001 | [2] 0.005 | [3] 0.012 | [4] -0.041 | [5] -0.116

CYB561A3 isoform 2 (UniProt Q8NBI2)
inactive: [1] 0.026 | [2] 0.016 | [3] 0.012 | [4] -0.225 | [5] -0.24

CTNNA1 (UniProt P35221)
inactive: [1] 0.001 | [2] 0.033 | [3] -0.006 | [4] -0.01 | [5] -0.019

CTNNB1 (UniProt P35222)
inactive: [1] -0.073 | [2] 0.01 | [3] -0.101 | [4] -0.019 | [5] -0.012

CSPP1 (UniProt Q1MSJ5)
inactive: [1] -0.082 | [2] 0.001 | [3] 0.051 | [4] -0.008 | [5] -0.028

CYB561 (UniProt P49447)
inactive: [1] 0.008 | [2] -0.14 | [3] -0.062 | [4] 0 | [5] -0.146
